The list does not hold the whole screen: it is rich in T/C values a quarter to a half above the control, in often repeated tests (any T/C) and in doses without a T/C. Further doses and runs are listed elsewhere. T/C gives the treated animals as a percentage of the vehicle group. Some doses have a count of surviving animals in place of a T/C: the source files T/C as zero there, which appears to mark a toxic dose or a test without result, not a measured value. Some survivor counts are full or nearly so, which does not show that the dose was tolerated: survival well below the control is almost never listed, so the zero probably covers shortened survival too. Survivors were counted at the toxicity check, usually on the fifth day, unless a day is given; later deaths do not show. Schedule codes are those of the source, taken here to give the interval after Q, in days (D) or hours (H), and the number of doses after X. Some structures stand for samples that the source files as different forms (salt, stereo form or complex); doses refer to the form tested. Some entries were tested several times; their values stand side by side, smallest first. For survival time, this PubChem deposit counts one and a half times the control or more as active, and values a quarter to a half above the control carry no call in these data; other NCI protocols may use other cut-offs. Some T/C values carry the count of animals alive at the toxicity check (mostly the fifth day); without a count, all were alive then. Residues, ends and D or L forms follow the SMILES beside them. *: point of attachment. Bn = c1ccc(C*)cc1; For = O=C*

This experiment has as its system BDF1 mice, P388 leukemia ip, median survival T/C. The experiment can be described thus: NCI In Vivo Anticancer Drug Screen. Data for tumor model P388 Leukemia (intraperitoneal) in B6D2F1 (BDF1) mice. The note with it: higher T/C = longer survival. A digest of the protocol: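 Transplantable tumour in mice; compound vs vehicle dosing; survival scored; ratio of treated to control reported.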

[1] abbreviates: T/C endpoint: median survival time, dose: 25.0 mg/kg/injection, schedule: Q01DX009 (ip), vehicle: saline.
[2] abbreviates: T/C endpoint: median survival time, dose: 50.0 mg/kg/injection, schedule: Q01DX009 (ip), vehicle: saline.
The mark [3] stands for this setting: T/C endpoint: median survival time, dose: 200.0 mg/kg/injection, schedule: Q04DX003 (ip), vehicle: saline.
[4] abbreviates: T/C endpoint: median survival time, dose: 400.0 mg/kg/injection, schedule: Q01DX009 (ip), vehicle: saline.
Where [5] appears, read: T/C endpoint: median survival time, dose: 400.0 mg/kg/injection, schedule: Q04DX003 (ip), vehicle: saline.
The mark [6] stands for this setting: T/C endpoint: median survival time, dose: 50.0 mg/kg/injection, schedule: Q01DX009 (ip), vehicle: saline with Tween-80.
Setting [7] is: T/C endpoint: median survival time, dose: 400.0 mg/kg/injection, schedule: Q01DX009 (ip), vehicle: saline with Tween-80.
Where [8] appears, read: T/C endpoint: median survival time, dose: 400.0 mg/kg/injection, schedule: Q04DX003 (ip), vehicle: saline with Tween-80.
Setting [9] is: T/C endpoint: median survival time, dose: 100.0 mg/kg/injection, schedule: Q04DX003 (ip), vehicle: saline.
[10] abbreviates: T/C endpoint: median survival time, dose: 1.56 mg/kg/injection, schedule: Q01DX009 (ip), vehicle: saline.
[11] abbreviates: T/C endpoint: median survival time, dose: 200.0 mg/kg/injection, schedule: Q01DX009 (ip), vehicle: saline with Tween-80.

On to `CCN(CC)CCNc1ccc(C)c2sc3ccccc3c(=O)c12` (tested in a mixture with another compound), for which the T/C (T/C endpoint: median survival time, dose: 12.5 mg/kg/injection, schedule: Q01DX009 (ip), vehicle: saline) is 130 % of control; the T/C under setting [1] was 125 % of control; the T/C (T/C endpoint: median survival time, dose: 33.0 mg/kg/injection, schedule: Q01DX009 (ip), vehicle: saline) was 131 % of control; the T/C under setting [2] is 130 [5 of 6 alive] and 140 % of control; the T/C (T/C endpoint: median survival time, dose: 75.0 mg/kg/injection, schedule: Q01DX009 (ip), vehicle: saline) is 145 % of control; the T/C (T/C endpoint: median survival time, dose: 132.0 mg/kg/injection, schedule: Q04DX003 (ip), vehicle: saline) was 127 % of control. For the same compound, the T/C under setting [3] was 127 % of control. The survivor count is reported as 5 of 6 (T/C endpoint: median survival time, dose: 100.0 mg/kg/injection, schedule: Q01DX009 (ip), vehicle: saline); 6 of 6 (T/C endpoint: median survival time, dose: 200.0 mg/kg/injection, schedule: Q01DX009 (ip), vehicle: saline); 1 of 6 under setting [4]; 4 of 6 under setting [5].

`CC(C)(O)/C=C/C(=O)[C@](C)(O)[C@H]1[C@H](O)C[C@@]2(C)[C@@H]3CC=C4[C@@H](C=C(O)C(=O)C4(C)C)[C@]3(C)C(=O)C[C@]12C`: the survivor count (T/C endpoint: median survival time, dose: 12.5 mg/kg/injection, schedule: Q01DX009 (ip), vehicle: Klucel (hydroxypropylcellulose) (HPC)) is given as 30 of 30.

Take `COCCCn1c(C(Cl)(Cl)Cl)nn2c(=O)c3ccccc3nc2c1=O`: the survivor count under setting [6] is given as 6 of 6.

As for `COc1cc2c3c(c4ccc(OC)c(OC)c4c2cc1OC)CN1CCC[C@@H]1C3`, the T/C (T/C endpoint: median survival time, dose: 4.0 mg/kg/injection, schedule: Q01DX010 (ip), vehicle: water) is 140 % of control and the T/C (T/C endpoint: median survival time, dose: 5.0 mg/kg/injection, schedule: Q01DX010 (ip), vehicle: saline) is 127 % of control. Also, the survivor count is given as 4 of 6 (T/C endpoint: median survival time, dose: 10.0 mg/kg/injection, schedule: Q01DX010 (ip), vehicle: water) and 6 of 6 (T/C endpoint: median survival time, dose: 12.5 mg/kg/injection, schedule: Q01DX010 (ip), vehicle: water).

Regarding `Nc1ccc2nc3ccccc3c(NCCCCCCCCNc3c4ccccc4nc4ccc(N)cc34)c2c1`, the T/C runs as follows: (T/C endpoint: median survival time, dose: 0.63 mg/kg/injection, schedule: Q01DX009 (ip), vehicle: water) 149 % of control; (T/C endpoint: median survival time, dose: 1.25 mg/kg/injection, schedule: Q01DX009 (ip), vehicle: water) 149 % of control; (T/C endpoint: median survival time, dose: 5.0 mg/kg/injection, schedule: Q01DX009 (ip), vehicle: water) 135 % of control.

Turning to `CC(C)CC(NC(=O)C(Cc1ccc(OCc2ccccc2)cc1)NC=O)C(=O)O` (configuration not stated) (For-Tyr(Bn)-Leu-OH; configuration not given here), the T/C under setting [7] was 140 % of control. The survivor count is on record as 2 of 6 (T/C endpoint: median survival time, dose: 400.0 mg/kg/injection, schedule: Q01DX009 (ip), vehicle: sodium bicarbonate); 4 of 6 (T/C endpoint: median survival time, dose: 450.0 mg/kg/injection, schedule: Q01DX009 (ip), vehicle: saline with Tween-80); 1 of 6 (T/C endpoint: median survival time, dose: 450.0 mg/kg/injection, schedule: Q01DX009 (ip), vehicle: sodium bicarbonate).

As to `O=Cc1nccn1Cc1ccccc1`, the survivor count under setting [8] is reported as 2 of 6.

`CCCCNP(=O)(N1CC1)N1CC1`: the T/C (T/C endpoint: median survival time, dose: 18.0 mg/kg/injection, schedule: Q04DX003 (ip), vehicle: saline with Tween-80) was 137 % of control. In addition, the survivor count under setting [9] is recorded as 2 of 6, the survivor count under setting [3] was 1 of 6 and the survivor count under setting [5] is 0 of 6.

Regarding `CCC[n+]1c(/C=C/c2c(OC)cc(OC)cc2OC)ccc2ccccc21`, the T/C is 130 % of control (T/C endpoint: median survival time, dose: 0.39 mg/kg/injection, schedule: Q01DX009 (ip), vehicle: saline) and 134 % of control [5 of 6 alive] under setting [10]. Moreover, the survivor count was 3 of 6 (T/C endpoint: median survival time, dose: 0.78 mg/kg/injection, schedule: Q01DX009 (ip), vehicle: saline); 2 of 6 under setting [10]; 1 of 6 and 2 of 6 (T/C endpoint: median survival time, dose: 3.13 mg/kg/injection, schedule: Q01DX009 (ip), vehicle: saline); 0 of 6 (T/C endpoint: median survival time, dose: 6.25 mg/kg/injection, schedule: Q01DX009 (ip), vehicle: saline); 0 of 6 under setting [6]; 0 of 6 (T/C endpoint: median survival time, dose: 100.0 mg/kg/injection, schedule: Q01DX009 (ip), vehicle: saline with Tween-80). Under setting [11], the survivor count is recorded as 0 of 6.

With `O=C(N[C@H](CO)[C@H](O)c1ccc([N+](=O)[O-])cc1)C(Cl)Cl`, the T/C runs as follows: under setting [11], 136 % of control; under setting [7], 131 % of control.

In the case of `CCOC(CN(Cc1ccc(OCc2ccccc2)c(OC)c1)S(=O)(=O)c1ccc(C)cc1)OCC`, for the setting “T/C endpoint: mean survival time, dose: 400.0 mg/kg/injection, schedule: Q01DX009 (ip), vehicle: water”, the survivor count was 5 of 6.

With `Cc1ccc(C2(C#N)CCCC2)cc1`, the survivor count under setting [7] is on record as 5 of 6.

With `O=C(O)CC[S-].[Ag+]`, the survivor count under setting [11] is 6 of 6 and the survivor count under setting [7] is reported as 6 of 6.

Take `C=CC(=O)NC12CC3CC(CC(C3)C1)C2`: the survivor count under setting [8] was 6 of 6.

On to `CCN1c2ccccc2CC(CCCN(C)C)(C(N)=O)c2ccccc21` (configuration not stated), for which the survivor count under setting [4] was 0 of 6.

In the case of `CCOC(=O)C(=O)CC(=O)/C=C/c1ccccc1`, under setting [7], the survivor count is reported as 5 of 6.

As to `COC(=O)C(CCC1CCCCN1)(c1ccccc1)c1ccccc1` (configuration not stated), the T/C is, setting by setting: under setting [1], 136 % of control; under setting [2], 145 % of control; (T/C endpoint: median survival time, dose: 100.0 mg/kg/injection, schedule: Q04DX003 (ip), vehicle: saline with Tween-80) 146 % of control. Moreover, the survivor count (T/C endpoint: median survival time, dose: 150.0 mg/kg/injection, schedule: Q04DX003 (ip), vehicle: saline with Tween-80) is reported as 1 of 6.

Turning to `Nc1ccc(O)c2ncccc12`, the survivor count reads like this: (T/C endpoint: median survival time, dose: 30.0 mg/kg/injection, schedule: Q01DX010 (ip), vehicle: saline) 4 of 6; (T/C endpoint: median survival time, dose: 60.0 mg/kg/injection, schedule: Q01DX010 (ip), vehicle: saline) 1 of 6.

As to `Cc1noc(-c2ccc([N+](=O)[O-])o2)n1`, for the setting “T/C endpoint: median survival time, dose: 300.0 mg/kg/injection, schedule: Q01DX009 (ip), vehicle: Klucel (hydroxypropylcellulose) (HPC)”, the survivor count is recorded as 3 of 6.

As to `CCOC(=O)NP(=O)(N1CC1)N1CC1`, the T/C is 130 % of control (T/C endpoint: median survival time, dose: 4.8 mg/kg/injection, schedule: Q04DX003 (ip), vehicle: saline); 135 % of control (T/C endpoint: median survival time, dose: 7.2 mg/kg/injection, schedule: Q04DX003 (ip), vehicle: saline); 140 % of control (T/C endpoint: median survival time, dose: 16.0 mg/kg/injection, schedule: Q04DX003 (ip), vehicle: saline). Besides, the survivor count under setting [9] is 4 of 6.

`Cc1nc2nc(N)[nH]c(=O)c2[nH]1`: the survivor count is, setting by setting: (T/C endpoint: median survival time, dose: 200.0 mg/kg/injection, schedule: Q04DX003 (ip), vehicle: saline with Tween-80) 3 of 6; under setting [8], 2 of 6.

Regarding `Cc1[nH]c(=O)[nH]c(=O)c1N(CCF)CCCl`, the T/C is 133 % of control (T/C endpoint: median survival time, dose: 5.0 mg/kg/injection, schedule: Q01DX009 (ip), vehicle: saline) and 145 % of control (T/C endpoint: median survival time, dose: 20.0 mg/kg/injection, schedule: Q01DX009 (ip), vehicle: Klucel (hydroxypropylcellulose) (HPC)). In addition, the survivor count was 10 of 10 (T/C endpoint: median survival time, dose: 20.0 mg/kg/injection, schedule: Q01DX009 (ip), vehicle: saline); 1 of 6 (T/C endpoint: median survival time, dose: 40.0 mg/kg/injection, schedule: Q01DX009 (ip), vehicle: Klucel (hydroxypropylcellulose) (HPC)); 8 of 10 (T/C endpoint: median survival time, dose: 40.0 mg/kg/injection, schedule: Q01DX009 (ip), vehicle: saline); 1 of 6 (T/C endpoint: median survival time, dose: 80.0 mg/kg/injection, schedule: Q01DX009 (ip), vehicle: Klucel (hydroxypropylcellulose) (HPC)); 5 of 10 (T/C endpoint: median survival time, dose: 80.0 mg/kg/injection, schedule: Q01DX009 (ip), vehicle: saline).

Values taken from PubChem BioAssay AID328 (DTP/NCI, 2004).
